Laboratory results as given in paper PMC2583255.
No constants are given. Whether binding was seen depends on the method and setting. Binding seen in cells or lysates may run through a third protein. Some entries that bind do so weakly or less than the wild type.

Protein sequences, listed by entry. Tags and fused reporters are not part of them. Residues count along the entry.
UniProt P12319, residues 26-257: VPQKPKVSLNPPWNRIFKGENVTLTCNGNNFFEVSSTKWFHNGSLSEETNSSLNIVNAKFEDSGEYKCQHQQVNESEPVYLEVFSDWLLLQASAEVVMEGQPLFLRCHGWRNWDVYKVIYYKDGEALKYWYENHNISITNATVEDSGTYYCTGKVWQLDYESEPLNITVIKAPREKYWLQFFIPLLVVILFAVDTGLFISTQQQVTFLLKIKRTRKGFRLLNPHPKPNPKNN
UniProt P30273, residues 19-86: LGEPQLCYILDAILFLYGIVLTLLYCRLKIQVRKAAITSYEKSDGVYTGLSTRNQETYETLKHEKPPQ

Target: High-affinity IgE receptor (FcεRI) α chain (human (endogenous in LAD2)) (UniProt P12319)
Assay: co-IP; LAD2-cell lysate (2 mM L-α-phosphatidylcholine, 10 mM CHAPS, 150 mM NaCl, 50 mM Tris-HCl pH 8.0, protease inhibitors), pre-cleared with protein-G sepharose; 1 μg mouse anti-FcεRI-α monoclonal antibody (CRA1) or isotype-matched mouse IgG2a, 3 h at room temperature, protein-G sepharose 1 h, 5 washes with lysis buffer; non-reducing SDS-PAGE, immunoblot with anti-FcεRI-β or anti-FcεRI-γ

In the case of “High-affinity IgE receptor (FcεRI) γ chain (from UniProt P30273 19-86)”, the binding is reported as “binds”.

B1: High-affinity IgE receptor (FcεRI) β chain (receptor, UniProt Q01362 1-244)
chain: MDTESNRRANLALPQEPSSVPAFEVLEISPQEVSSGRLLKSASSPPLHTWLTVLKKEQEFLGVTQILTAMICLCFGTVVCSVLDISHIEGDIFSSFKAGYPFWGAIFFSISGMLSIISERRNATYLVRGSLGANTASSIAGGTGITILIINLKKSLAYIHIHSCQKFFETKCFMASFSTEIVVMMLFLTILGLGSAVSLTICGAGEELKGNKVPEDRVYEELNIYSATYSELEDPGEMSPPIDL
With B1 the binding was “binds”.
